Laboratory results from publication PMC6508501, “Conserved redox‐dependent DNA binding of ROXY glutaredoxins with TGA transcription factors”.
For at least one entry, the source does not settle the construct or the ends of the probe. For some of these results: No signal at the amounts used counts as a negative. For some of these results: Weaker means in comparison with the reference protein, sequence or condition of that experiment. For some of these results: At least one verdict rests on a figure or table, not on a statement of the authors.

Columns and labels:
[1] = tested on: MpTGA; experiment: EMSA; conditions: Redox EMSA per Gutsche & Zachgo 2016 (buffer, salt, pH, temperature not stated), 0.9 mM DTT (red) or 2 mM diamide (ox), 500 ng recombinant protein per reaction, protein translated in vitro, protein details: N-terminal 6xHis, label: 5' 6-FAM
[2] = tested on: MpTGA + MpROXY2; experiment: EMSA supershift; conditions: Redox EMSA per Gutsche & Zachgo 2016 (buffer, salt, pH, temperature not stated), 0.9 mM DTT (red) or 2 mM diamide (ox), 500 ng recombinant protein per reaction, protein translated in vitro, protein details: N-terminal 6xHis,N-terminal MBP, label: 5' 6-FAM
[3] = tested on: PAN (PERIANTHIA) + MpROXY1; experiment: EMSA supershift; conditions: Redox EMSA per Gutsche & Zachgo 2016 (buffer, salt, pH, temperature not stated); 0.9 mM DTT (red) or 2 mM diamide (ox); 500 ng recombinant protein per reaction; recombinant protein; protein details: N-terminal MBP (per Methods),N-terminal MBP; label: 5' 6-FAM
[4] = tested on: MpTGA3xC + MpROXY2; experiment: EMSA supershift; conditions: 0.9 mM DTT (reducing); Redox EMSA per Gutsche & Zachgo 2016 (buffer, salt, pH, temperature not stated); 0.9 mM DTT (red) or 2 mM diamide (ox); 500 ng recombinant protein per reaction; protein translated in vitro; protein details: N-terminal 6xHis,N-terminal MBP; label: 5' 6-FAM
[5] = tested on: MpROXY1; experiment: EMSA; conditions: 0.9 mM DTT or 2 mM diamide; Redox EMSA per Gutsche & Zachgo 2016 (buffer, salt, pH, temperature not stated); 0.9 mM DTT (red) or 2 mM diamide (ox); 500 ng recombinant protein per reaction; recombinant protein; protein details: N-terminal MBP; label: 5' 6-FAM
[6] = tested on: MpTGA3xC; experiment: EMSA; conditions: Redox EMSA per Gutsche & Zachgo 2016 (buffer, salt, pH, temperature not stated), 0.9 mM DTT (red) or 2 mM diamide (ox), 500 ng recombinant protein per reaction, protein translated in vitro, protein details: N-terminal 6xHis, label: 5' 6-FAM

Sequence: CTAAATCACTATTTTACTTAAATCATAG (double strand) [Δas-1-like]
- binding result ([1]; 0.9 mM DTT (reducing)): no binding

Sequence: AAGAATCTTTGATCACGTCATCACTCAGATATT (double strand)
- binding result ([1]; 0.9 mM DTT (reducing)): binds

Sequence: CTACGTCACTATTTTACTTACGTCATAG (double strand) [as-1-like]
- binding result ([2]; 0.9 mM DTT (reducing), supershift incomplete): binds
- binding result ([2]; 2 mM diamide (oxidizing)): no binding
- binding result [3]: binds
- binding result [4]: binds
- binding result [5]: no binding
- binding result ([1]; 0.9 mM DTT (reducing)): binds
- binding result ([1]; 2 mM diamide (oxidizing)): binds more weakly
- binding result ([1]; 2 mM diamide then 20 mM DTT): binds
- binding result ([6]; 0.9 mM DTT (reducing)): binds
- binding result ([6]; 2 mM diamide (oxidizing)): binds

Sequence: AAGAATCTTTGATCAAATCATCACTCAGATATT (double strand) [ΔbZIP]
- binding result ([1]; 0.9 mM DTT (reducing)): no binding
